According to patent publication US20030156977A1, “Method for rapidly sterilizing a load” (priority 2000, published 2003):
Values joined by “and” are separate entries in the source; they are usually repeats but may differ in a detail not shown here. Identical values can stand only once. Like-named read-outs stand apart in the source and are kept apart here.

Settings: for -ln (Cf/Co) / Cf, final concentration of hydrogen peroxide / Cf/Co / Area under C versus t curve: 8.6 mg/L H2O2 injected, 6 trays, 20 min pre-plasma; for Area under C versus t curve: from time of maximum concentration
Description: The pressure inside the chamber was also monitored as a function of time. After the completion of the sterilization cycle, the chamber was vented, the equipment was removed, and the inoculated coupons were tested for growth in the medium. […] The sterilization results and the summary of the various methods of analyzing the hydrogen concentration data are shown in Table 2 below.
The data were analyzed in various ways to determine whether a method could be found to quickly determine the suitability of the load for sterilization.
FIGS. 5-8 show graphs of ln(c/c0) versus time for a validation load (FIG. 5), a heavy load (FIG. 6), a heavy load with a new towel (FIG. 7), and a heavy load with an old towel (FIG. 8).
The initial slopes in Table 2 are recorded as the negative of the initial slopes for simplicity in recording the data.
The final concentration is measured at the end of the diffusion step 50, prior to evacuating and generating the post-injection plasma.

[1] = Group 3: heavy load, 1 new towel
[2] = Group 3: heavy load, 2 new towels
[3] = Group 4: heavy load, 1 old towel

Structure (SMILES): OO [hydrogen peroxide]
- Average final concentration of hydrogen peroxide (Group 1 validation loads): 0.92 mg/L
- Average area under the curve (Group 1 validation runs): 512 mg·s/L
- -ln (Cf/Co) (Group 2: heavy load, 1 filter): 2.05
- Cf, final concentration of hydrogen peroxide (Group 2: heavy load, 1 filter): 0.50 mg/L
- Cf/Co (Group 2: heavy load, 1 filter): 0.13
- Area under C versus t curve (Group 2: heavy load, 1 filter): 392 mg·s/L
- -ln (Cf/Co) (Group 2: heavy load, 2 filters): 2.22
- Cf, final concentration of hydrogen peroxide (Group 2: heavy load, 2 filters): 0.46 mg/L
- Cf/Co (Group 2: heavy load, 2 filters): 0.11
- Area under C versus t curve (Group 2: heavy load, 2 filters): 373 mg·s/L
- -ln (Cf/Co) (Group 2: heavy load, brass): 1.80
- Cf, final concentration of hydrogen peroxide (Group 2: heavy load, brass): 0.51 mg/L
- Cf/Co (Group 2: heavy load, brass): 0.16
- Area under C versus t curve (Group 2: heavy load, brass): 364 mg·s/L
- -ln (Cf/Co) (Group 2: heavy load, mat): 2.11 and 2.06
- Cf, final concentration of hydrogen peroxide (Group 2: heavy load, mat): 0.47 mg/L and 0.49 mg/L
- Cf/Co (Group 2: heavy load, mat): 0.12 and 0.13
- Area under C versus t curve (Group 2: heavy load, mat): 429 mg·s/L and 439 mg·s/L
- -ln (Cf/Co) (Group 2: heavy load): 2.12
- Cf, final concentration of hydrogen peroxide (Group 2: heavy load): 0.46 mg/L
- Cf/Co (Group 2: heavy load): 0.12
- Area under C versus t curve (Group 2: heavy load): 398 mg·s/L
- Final concentration of hydrogen peroxide, range over runs (Group 2 heavy load runs (all variants)): 0.46 to 0.51 mg/L
- Average area under the curve (Group 2 heavy loads): 399 mg·s/L
- Average final concentration of hydrogen peroxide (Group 2 heavy loads): 0.48 mg/L
- -ln (Cf/Co) [1]: 3.14
- Cf, final concentration of hydrogen peroxide [1]: 0.12 mg/L
- Cf/Co [1]: 0.04
- Area under C versus t curve [1]: 156 mg·s/L
- -ln (Cf/Co) [2]: 3.48
- Cf, final concentration of hydrogen peroxide [2]: 0.08 mg/L
- Cf/Co [2]: 0.03
- Area under C versus t curve [2]: 129 mg·s/L
- -ln (Cf/Co) (Group 3: heavy load, 6/8 towel): 2.59
- Cf, final concentration of hydrogen peroxide (Group 3: heavy load, 6/8 towel): 0.24 mg/L
- Cf/Co (Group 3: heavy load, 6/8 towel): 0.08
- Area under C versus t curve (Group 3: heavy load, 6/8 towel): 246 mg·s/L
- Final concentrations of hydrogen peroxide, range over runs (Group 3 and Group 4 runs with heavy loads and towels): 0 to 0.24 mg/L
- Average area under the curve (Group 3 heavy loads with a new towel): 177 mg·s/L
- -ln (Cf/Co) [3]: 7.71 and 6.94
- Area under C versus t curve [3]: 76 mg·s/L and 118 mg·s/L
- Average area under the curve (Group 4 heavy loads with old towels): 97 mg·s/L
